Laboratory results from publication PMC8616552.
No constants are given. Whether binding was seen depends on the method and setting. Binding seen in cells or lysates may run through a third protein.

Sequences of proteins named here, by UniProt entry; tags and fusion partners are left off.
UniProt Q8C6L5: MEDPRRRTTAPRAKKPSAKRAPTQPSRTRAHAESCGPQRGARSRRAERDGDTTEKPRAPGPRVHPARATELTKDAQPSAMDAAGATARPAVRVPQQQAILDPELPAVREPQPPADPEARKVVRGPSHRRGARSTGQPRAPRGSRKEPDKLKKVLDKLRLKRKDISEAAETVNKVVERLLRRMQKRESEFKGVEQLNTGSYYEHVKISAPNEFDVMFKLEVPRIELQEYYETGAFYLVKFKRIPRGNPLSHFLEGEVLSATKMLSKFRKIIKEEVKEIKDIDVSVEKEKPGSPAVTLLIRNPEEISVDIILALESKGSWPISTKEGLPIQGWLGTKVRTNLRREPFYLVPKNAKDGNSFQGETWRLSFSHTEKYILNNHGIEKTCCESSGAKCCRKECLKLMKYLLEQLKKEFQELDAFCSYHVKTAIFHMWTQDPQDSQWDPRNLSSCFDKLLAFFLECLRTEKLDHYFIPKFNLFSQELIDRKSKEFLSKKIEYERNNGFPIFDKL

Molecular target: cyclic GMP-AMP (cGAMP) synthase (cGAS) (UniProt Q8C6L5)
Assay: co-IP; HEK293 cells expressing the indicated plasmids, stimulated with double-stranded DNA for 6 h; lysates immunoprecipitated with anti-HA Ab, then immunoblotting

binding: no binding
B1: TRAF-family member associated NF-κB activator (TANK) (protein, UniProt P70347 1-448)
chain: MSLKRHSLRRNACHLETRAGIPTILYSDATGQRGMDKNIGEQLNRAYEAFRQACMDRDSAVRELQQKQTENYEQRIREQQEQLSFQQNLIDRLKSQLLLVDSSRDNSYGYVPLLEDSDRRKNNLTLDEPHDKVKLGTLRDKQSKVRRQEVSSGKESAKGLNIPLHHERDNIEKTFWDLKEEFHRICLLAKAQKDHLSKLNIPDIATDTQCSVPIQCTDKTEKQEALFKPQAKDDINRGMSCVTAVTPRGLGRDEEDTSFESLSKFNVKFPPMDNDSIFLHSTPEAPSILAPATPETVCQDRFNMEVRDNPGNFVKTEETLFEIQGIDPITSAIQNLKTTDKTNPSNLRATCLPAGDHNVFYVNTFPLQDPPDAPFPSLDSPGKAVRGPQQPFWKPFLNQDTDLVVPSDSDSELLKPLVCEFCQELFPPSITSRGDFLRHLNTHFNGET
